Test results reported in paper PMC3873232.
No constants are given. Whether binding was seen depends on the method and setting. For some assays here: Binding seen in cells or lysates may run through a third protein. For some assays here: Where a sequence is shown, tags or fusion partners need not be part of it.

B1: Tpr1-13xmyc (protein, UniProt O42668 1-1039)
chain: MEGFTLETHASRIIEVPLLGQEDQSVEIDCSSLPSDATELCEILVNEQAPREFWTKFAHEYYIRGLREQAILILKSGLETLKDSESLCILNANIAAIYLSMAREAMLKKDTDLRDEQLRNVRTYLEAANNIDSKSEINVLLHGIYRILLNPTDKESLENAARCFDFVLQKSGGNILGFLGKARILYAKGNYRSALKLYQRALVSNPQFKPDPRIGIGLCFWNLDMKTDALSAWTRVQQLDPKNTVVDTYIGLYYYDLAFQNVNNDSFVQNYGKALQHIQRAFKTRNNDPVASSILERYVYSKKNYEGCIKLAENVIQNSFSSSLIADGYYWMGRAYHQMGNNEKAMASYQKAKAADDRHLLSSVGIGQIQILQNDLTSAKLTFERIAEQNQSCFEALVVLGCLHASDSKPDLTKARMLLDRAFNLVGSSKLPRVVDSDLYITQARLWEKEDTKKSLGFLTRALDFLESAHMSVGPELLNNIAVLQYHLGLIPEAHGNIIKAKSVLPDANPELSLLLDYNLARCEEELGNTSVASEAYVSILEKHPSFIDARIRKCLLQLSNPNEETFKEIRHIMNADSQNLEVRAFFGWYLSKQKRRPVEDPEVRHCSQTLRHWHDDIYSLVQLGNAYMRQAREFRVHNDREKLKRQKLYIKAIQSYDQAIKFDPKNAHAAQGIAIILAQNRQFSKALLILSKVREAIKDATTLINIGNCLAELKQFSRAIEVFETVYSSTGESDTYGVLSCLGRVWLQRGRESKNVDYLKESVRYATLALEKNPENPSLLFNVAFVQFQLCELIRQKPENSRTVEDLNFAMQQLDASIETFTKLVSVEHPPYSPTSIEQRAKMAKNTTKRQLERAIQAQIEYEKSVAAKLEDARIQREKEKARRLAEEEALLKEKQERERQLQEERQKMQEEVLEWRKSQQKASEDDMSLSDDEEKQSGKKKKKDRKKRKSKSKQESSDSGVSEDDEIPLSDARNKTKKRRVNRRVISEEYTFDQDSDAEGNQEEEVSRTIEEKQDNDITDNQDDNKELNLFSEEDEE

Columns and labels:
[1] = molecular target: T1, Thr1-P form of the Spt5 CTD peptide (S. pombe); assay: pull-down; biotinylated peptides (50 µg) on streptavidin Dynabeads incubated with 50-200 ng TAP-purified factor in 200 µl (20 mM Hepes pH 7.6, 37.5 mM KOAc, 2.5 mM MgOAc, 5% glycerol, 0.075% Triton X-100), 4°C, 1 h; washes with 250 mM KOAc; immunoblot with a TAP antibody; percent bound by ImageJ; both …
T1 sequence (peptide, biotin on the N-terminus; both Thr residues phosphorylated): GSKTPAWNSGSKTPAWNS

Prf1-TAP (S. pombe) = assay: co-IP; single-step TAP purification: whole cell extracts incubated with IgG-sepharose beads to isolate Prf1-TAP; bound material analysed by SDS-PAGE and western blotting

Molecule | binding [1] | binding (Prf1-TAP (S. pombe))
PAF complex purified from the tpr1-TAP strain (S. pombe) | no binding (tested: 200 ng in 200 µl) | –
B1 | – | no binding
